The list shows a part of the results.
How the values were obtained:
Test in all cases: glycan array binding signal (z-score within array); higher = stronger binding
Conditions in all cases: glycan notation: IUPAC condensed, linker removed
[1] = molecular target: GlcNAc(a1-4)Gal(b1-4)GalNAc
In short: (§1)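 Glycan array data were curated from 3228 arrays in the Consortium for Functional Glycomics database and kept only where the protein sequence was available. Glycan names were converted to IUPAC-condensed notation, and columns mapping to the same glycan were averaged. The binding signal is a within-array Z-score, averaged across arrays of the same protein sequence at different concentrations or buffers and across linkers. Negative Z-scores can be read as non-binding.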

[2] = molecular target: GlcNAc(a1-4)Gal(b1-4)GlcNAc
In short: as §1

[3] = molecular target: GlcNAc(a1-4)Gal(b1-4)GlcNAc(b1-3)Gal(b1-4)Glc
In short: as §1

[4] = molecular target: GlcNAc(a1-4)Gal(b1-4)GlcNAc(b1-3)Gal(b1-4)GlcNAc
In short: as §1

[5] = molecular target: GlcNAc(a1-4)Gal(b1-4)GlcNAc(b1-3)Gal(b1-4)GlcNAc(b1-3)Gal(b1-4)GlcNAc
In short: as §1

[6] = molecular target: GlcNAc(a1-4)Gal(b1-4)GlcNAc(b1-3)Gal(b1-4)[Fuc(a1-3)]GlcNAc(b1-3)Gal(b1-4)[Fuc(a1-3)]GlcNAc
In short: as §1

[7] = molecular target: GlcNAc(a1-6)Gal(b1-4)GlcNAc
In short: as §1

[8] = molecular target: GlcNAc(b1-2)Gal(b1-3)GalNAc
In short: as §1

[9] = molecular target: GlcNAc(b1-2)Man(a1-3)[GlcNAc(b1-2)Man(a1-6)]Man(b1-4)GlcNAc(b1-4)GlcNAc
In short: as §1

[10] = molecular target: GlcNAc(b1-2)Man(a1-3)[GlcNAc(b1-2)Man(a1-6)]Man(b1-4)GlcNAc(b1-4)[Fuc(a1-6)]GlcNAc
In short: as §1

[11] = molecular target: GlcNAc(b1-2)[GlcNAc(b1-4)]Man(a1-3)[GlcNAc(b1-2)Man(a1-6)]Man(b1-4)GlcNAc(b1-4)GlcNAc
In short: as §1

GlcNAc(b1-3)Gal = molecular target: GlcNAc(b1-3)Gal
In short: as §1

[12] = molecular target: GlcNAc(b1-3)Gal(b1-3)GalNAc
In short: as §1

GlcNAc(b1-3)Gal(b1-4)Glc = molecular target: GlcNAc(b1-3)Gal(b1-4)Glc
In short: as §1

[13] = molecular target: GlcNAc(b1-3)Gal(b1-4)GlcNAc
In short: as §1

[14] = molecular target: GlcNAc(b1-3)Gal(b1-4)GlcNAc(b1-3)Gal(b1-4)GlcNAc
In short: as §1

GlcNAc(b1-3)GalNAc = molecular target: GlcNAc(b1-3)GalNAc
In short: as §1

GlcNAc(b1-3)Man = molecular target: GlcNAc(b1-3)Man
In short: as §1

[15] = molecular target: GlcNAc(b1-3)[GlcNAc(b1-4)][GlcNAc(b1-6)]GlcNAc
In short: as §1

[16] = molecular target: GlcNAc(b1-3)[GlcNAc(b1-6)]Gal(b1-4)GlcNAc
In short: as §1

[17] = molecular target: GlcNAc(b1-3)[GlcNAc(b1-6)]GalNAc
In short: as §1

[18] = molecular target: GlcNAc(b1-4)Gal(b1-4)GlcNAc
In short: as §1

GlcNAc(b1-4)GlcNAc = molecular target: GlcNAc(b1-4)GlcNAc
In short: as §1

[19] = molecular target: GlcNAc(b1-4)GlcNAc(b1-4)GlcNAc
In short: as §1

[20] = molecular target: GlcNAc(b1-4)GlcNAc(b1-4)GlcNAc(b1-4)GlcNAc(b1-4)GlcNAc
In short: as §1

[21] = molecular target: GlcNAc(b1-4)GlcNAc(b1-4)GlcNAc(b1-4)GlcNAc(b1-4)GlcNAc(b1-4)GlcNAc
In short: as §1

[22] = molecular target: GlcNAc(b1-4)[GlcNAc(b1-6)]GalNAc
In short: as §1

[23] = molecular target: GlcNAc(b1-6)Gal(b1-4)GlcNAc
In short: as §1

GlcNAc(b1-6)GalNAc = molecular target: GlcNAc(b1-6)GalNAc
In short: as §1

GlcNAc3Prop(b1-4)GlcNAc = molecular target: GlcNAc3Prop(b1-4)GlcNAc
In short: as §1

B1: MIC2 (Toxoplasma gondii), S8F9G8 (protein)
chain: MRLQREAVFGLMFACGMWMWPSEVAGGGWSIVDALRKRYDTSRGGDANGVDTSGVEDVIQSESAIGAAEGCTNQLDICFLIDSSGSIGIQNFRLVKQFLHTFLMVLPIGPEEVNNAVVTYSTDVHLQWDLQSPNAVDKQLAAHAVLDMPYKKGSTNTSDGLKACKQILFTGSRPGREHVPKLVIGMTDGESDSDFRTVRAAKEIRELGGIVTVLAVGHYVKHSECRSMCGCSGTSDDDSPCPLYLRADWGQLATAIKPMLKEVCKTLPQDAICSDWSAWSPCSVSCGDGSQIRTRTEVSAPQPGTPTCPDCPAPMGRTCVEQGGLEEIRECSAGVCAVDAGCGVWGEWSAWSASCGNATRKRERTRYNDPPPQGAGRRCENQDPPVLQEQTEEATLAPCITIPPTPPEWAAWSDCTVTCGGGNRHRVRNALPPGLGSQNGESDESLVSKLWPGTDLRQEEACNTSPCPINATCGQFEEWSTCSVSCGGGLKTRSRNPWNEDQQHGGLSCEQQHPGGRTETITCNPQACPVDERPGEWAEWGECSVTCGDGVRERRRGKSLVEAKFGGRTIDQQNEALPEDLKIKNVEYEPCSYPACGASCTYVWSDWNKCVCPMGYQARHAAVKFDYRNKPCDLPTFETKACSCGETNPVPSEGTTPGAPGATGPEQPNQRPLPEGSDENETPTNEEGEQSKKESGSGIAGAIAGGVIGGLILLGAAGGASYHYYLSSSVGSPSAEIEYEADDGATKVVMEEEKETLVPVDDDSDMWME
glycan array binding signal (z-score) [1]: 0.632 | glycan array binding signal (z-score) [2]: -0.232 | glycan array binding signal (z-score) [3]: -0.113 | glycan array binding signal (z-score) [4]: 0.748 | glycan array binding signal (z-score) [5]: 0.145 | glycan array binding signal (z-score) [6]: 3.35 | glycan array binding signal (z-score) [7]: -1.04 | glycan array binding signal (z-score) [8]: -0.003 | glycan array binding signal (z-score) [9]: -0.726 | glycan array binding signal (z-score) [10]: 4 | glycan array binding signal (z-score) [11]: -0.71 | glycan array binding signal (z-score) (GlcNAc(b1-3)Gal): 0.042 | glycan array binding signal (z-score) [12]: 1.7 | glycan array binding signal (z-score) (GlcNAc(b1-3)Gal(b1-4)Glc): -1 | glycan array binding signal (z-score) [13]: -0.053 | glycan array binding signal (z-score) [14]: -0.403 | glycan array binding signal (z-score) (GlcNAc(b1-3)GalNAc): 0.017 | glycan array binding signal (z-score) (GlcNAc(b1-3)Man): -0.817 | glycan array binding signal (z-score) [15]: -0.199 | glycan array binding signal (z-score) [16]: -0.112 | glycan array binding signal (z-score) [17]: -0.444 | glycan array binding signal (z-score) [18]: -0.948 | glycan array binding signal (z-score) (GlcNAc(b1-4)GlcNAc): -0.862 | glycan array binding signal (z-score) [19]: -0.807 | glycan array binding signal (z-score) [20]: 0.878 | glycan array binding signal (z-score) [21]: 0.267 | glycan array binding signal (z-score) [22]: -1.16 | glycan array binding signal (z-score) [23]: -0.283 | glycan array binding signal (z-score) (GlcNAc(b1-6)GalNAc): -0.482 | glycan array binding signal (z-score) (GlcNAc3Prop(b1-4)GlcNAc): -0.735

From the supplement of paper PMC8728848
